“Also recorded” adds a separate entry of the source. Not every detail of the peptide structures is certain; ends, links or a residue may be inferred. For some of these results: At least one compound was matched to its structure with a doubt left. Positions of bridges follow the written chain, without caps; N, C: chain ends. Residues, ends and D or L forms follow the SMILES beside them.
Assays:
BK channel = BK channel (Homo sapiens, UniProt Q12791); test: Phosphorylation at a specific site on the BK channel
[1] = system: inferior colliculus neurons
[2] = target: T1, human BKα channel (ZERO isoform) (Homo sapiens, UniProt Q12791); test: Patch-clamp recordings of human BKα channels (ZERO isoform) expressed in HEK293 cells, inside-out patches; format: cell-based
T1 construct: expressed in transfected cells; host or cells: HEK293
Procedure: FIGS. 6A-6H. LS3 alters the gating of human BK channels. Human BKα channels (ZERO isoform) expressed in HEK293 cells were recorded in inside-out patches. Peptide was applied by diffusion to the extracellular side. Intracellular calcium held at 750 nM. […] FIGS. 6C-6E, Bar graphs displaying the post-peptide Po relative to the starting Po across LS3 concentrations. […] FIG. 6F-6H, Bar graphs displaying the post-peptide Po relative to the starting Po for either 500 nM LS3 (cyclic) or 500 nM of the reduced form of LS3 (linear).
FIGS. 7A-7C. LS3 alters open and closed dwell times of the human BK channel. Single human BKα channels (ZERO isoform) expressed in HEK293 cells were recorded in inside-out patches. Intracellular calcium held at 750 nM. FIGS. 7A-7C, Bar graphs showing one example of changes in open and closed dwell times before (red) and after (black) 500 nM LS3 (100 mV). Channel open dwell times shortened (FIG. 7A).
FIGS. 11A-11C. The 9-amino acid peptides with an N- and C-terminal disulfide bond express motifs that were highly enriched in a screen for BK channel targeted peptides (FIG. 11A). […] 60 mV shown. N=6-12. Dotted line indicates baseline (FIGS. 11B and 11C).
FIGS. 13A-1, 13A-2, 13B, 13C-1, 13C-2, 13D-1, and 13D-2. […] Single human BKα (ZERO isoform) channels expressed in HEK293 cells were recorded in inside-out patches before and after 500 nM LS10. Intracellular calcium held at 750 nM. FIGS. 13A-1 and 13A-2: open dwell times before (FIG. 13A-1) and after (FIG. 13A-2) LS10 for a representative recording at 100 mV. Single exponential fit, red line. FIG. 13B: the mean change in peak open dwell times in response to LS10. Paired Student's t-tests compared the pre- and post-peptide peak open durations, *p<0.05, N=5-6). FIGS. 13C-1 and 13C-2: closed dwell times before (FIG. 13C-1) and after (FIG. 13C-2) LS10 for a representative recording at 100 mV. […] Three component exponential fits (gray dotted-lines) and summation (red lines) also indicated. FIGS. 13D-1 and 13D-2: the mean change in peak short (FIG. 13D-1) and long (FIG. 13D-2) duration closed dwell times in response to LS10. Paired Student's t-tests compared the pre- and post-peptide peak open durations, *p<0.05, N=6.
HEK293 cells (ATCC, Manassas, Va.) were grown according to standard procedures. Cells were cultured at 37° C. in a 5% CO2 atmosphere in Dulbecco's modified Eagle's medium with 1-glutamine, sodium pyruvate and 10% fetal bovine serum (Invitrogen). Cell lines were split with trypsin/EDTA in Hanks' balanced salt solution (Invitrogen) up to 25-30 cycles. For phage display, stable lines stably expressed rSK2 or hBKα ZERO isoform. Cells were transfected (Lipofectamine 2000, Invitrogen) with hGlyRα1 and used 48 hours later. For electrophysiological recordings, cells were transfected with the hBKα ZERO or STREX isoform. Enhanced green fluorescent protein (EGFP) was cotransfected as a marker. Electrophysiological recordings were made 16-72 h after transfection. Although the profile of BK channel composition varies from tissue to tissue, the ZERO BK channel splice variant is widely expressed, particularly in the nervous system, serving as a representative form for studying the modulation of BK channel gating.
Voltage-clamp recordings were performed at room temperature (22-24° C.) using an inside-out configuration on patches pulled from HEK293 cells. The extracellular solution contained the following (in mM): 2 KCl, 136 KOH, 20 Hepes, 2 MgCl2, adjusted to pH 7.2 with MeSO3H. In order to apply peptide to the extracellular surface, patch electrodes (7-20 MΩ in resistance) were tip filled with normal extracellular solution and backfilled with extracellular solution containing LS3. Enough normal extracellular solution was included to provide at least five minutes of peptide-free recording (determined by plotting Po vs. time). The intracellular solution (in the bath) contained the following (in mM): 6 KCl, 132 KOH, 20 Hepes, adjusted to pH 7.2 with MeSO3H. […]

Protein sequences, listed by entry. Tags and fused reporters are not part of them. Residues count along the entry.
UniProt Q12791, whole entry, species assumed: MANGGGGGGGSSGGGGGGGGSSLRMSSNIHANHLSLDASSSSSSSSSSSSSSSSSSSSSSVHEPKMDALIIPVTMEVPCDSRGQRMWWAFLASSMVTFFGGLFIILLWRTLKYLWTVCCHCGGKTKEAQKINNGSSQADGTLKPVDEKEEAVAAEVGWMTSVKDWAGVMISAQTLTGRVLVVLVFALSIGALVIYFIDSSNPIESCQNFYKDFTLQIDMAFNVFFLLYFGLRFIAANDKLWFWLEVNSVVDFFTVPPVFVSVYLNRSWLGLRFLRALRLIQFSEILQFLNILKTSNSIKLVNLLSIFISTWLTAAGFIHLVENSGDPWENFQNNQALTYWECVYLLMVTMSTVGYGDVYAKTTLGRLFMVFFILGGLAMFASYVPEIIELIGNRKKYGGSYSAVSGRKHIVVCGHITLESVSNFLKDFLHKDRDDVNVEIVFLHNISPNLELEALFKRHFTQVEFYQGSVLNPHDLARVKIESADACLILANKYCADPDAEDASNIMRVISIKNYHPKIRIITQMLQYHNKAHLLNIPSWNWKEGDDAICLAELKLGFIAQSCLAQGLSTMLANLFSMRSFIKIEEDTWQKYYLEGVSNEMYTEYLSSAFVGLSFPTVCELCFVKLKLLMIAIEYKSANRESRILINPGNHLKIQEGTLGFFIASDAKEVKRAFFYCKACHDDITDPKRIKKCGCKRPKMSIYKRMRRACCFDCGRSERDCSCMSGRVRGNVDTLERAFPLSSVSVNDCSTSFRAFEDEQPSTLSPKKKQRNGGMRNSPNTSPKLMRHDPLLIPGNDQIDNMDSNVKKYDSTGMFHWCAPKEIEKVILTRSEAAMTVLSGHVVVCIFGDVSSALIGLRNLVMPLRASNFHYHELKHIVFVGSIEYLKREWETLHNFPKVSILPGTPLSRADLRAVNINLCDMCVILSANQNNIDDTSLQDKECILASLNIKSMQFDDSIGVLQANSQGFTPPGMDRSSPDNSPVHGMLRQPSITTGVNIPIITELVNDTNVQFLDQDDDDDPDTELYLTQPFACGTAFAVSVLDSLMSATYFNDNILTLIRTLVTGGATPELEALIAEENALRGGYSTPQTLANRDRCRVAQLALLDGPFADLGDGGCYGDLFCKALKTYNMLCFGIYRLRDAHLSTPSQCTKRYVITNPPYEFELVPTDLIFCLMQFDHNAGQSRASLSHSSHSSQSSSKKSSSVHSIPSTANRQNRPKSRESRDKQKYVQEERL
UniProt Q12791, 1-1178 isoform Q12791-5: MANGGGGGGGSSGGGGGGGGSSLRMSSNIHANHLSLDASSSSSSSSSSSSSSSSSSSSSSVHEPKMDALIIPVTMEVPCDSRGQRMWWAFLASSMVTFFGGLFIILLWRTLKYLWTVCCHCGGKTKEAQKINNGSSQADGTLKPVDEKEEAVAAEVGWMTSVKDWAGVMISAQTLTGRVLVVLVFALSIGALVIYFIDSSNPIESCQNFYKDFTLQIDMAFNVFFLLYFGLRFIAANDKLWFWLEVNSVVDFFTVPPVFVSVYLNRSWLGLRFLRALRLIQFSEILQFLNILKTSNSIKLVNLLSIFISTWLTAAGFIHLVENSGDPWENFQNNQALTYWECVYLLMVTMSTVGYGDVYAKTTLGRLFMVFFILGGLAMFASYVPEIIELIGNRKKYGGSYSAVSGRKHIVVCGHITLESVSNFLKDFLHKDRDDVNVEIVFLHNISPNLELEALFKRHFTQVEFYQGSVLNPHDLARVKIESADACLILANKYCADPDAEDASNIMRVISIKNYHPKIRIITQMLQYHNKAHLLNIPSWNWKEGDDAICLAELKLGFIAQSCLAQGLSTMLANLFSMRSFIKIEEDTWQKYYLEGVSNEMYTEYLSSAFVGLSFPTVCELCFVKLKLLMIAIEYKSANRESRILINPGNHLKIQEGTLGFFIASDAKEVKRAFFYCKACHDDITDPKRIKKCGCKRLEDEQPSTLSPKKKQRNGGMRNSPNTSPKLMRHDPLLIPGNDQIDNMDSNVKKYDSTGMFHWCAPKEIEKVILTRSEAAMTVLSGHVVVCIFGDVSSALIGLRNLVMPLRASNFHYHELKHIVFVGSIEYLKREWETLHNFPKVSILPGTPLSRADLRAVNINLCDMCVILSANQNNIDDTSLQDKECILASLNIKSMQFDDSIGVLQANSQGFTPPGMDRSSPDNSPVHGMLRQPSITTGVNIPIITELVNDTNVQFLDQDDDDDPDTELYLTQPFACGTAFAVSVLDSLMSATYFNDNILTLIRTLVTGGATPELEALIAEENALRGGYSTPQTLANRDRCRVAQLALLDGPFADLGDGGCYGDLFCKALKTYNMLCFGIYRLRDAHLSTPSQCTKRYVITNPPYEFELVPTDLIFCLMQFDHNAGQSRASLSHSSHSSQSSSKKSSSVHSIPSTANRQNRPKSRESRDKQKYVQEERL

slo-1(+) rescue worms = test: C. elegans crawl speed assay, slo-1 null background rescued with worm BK channel gene; format: in vivo, Caenorhabditis elegans; conditions: 750 μM, extrachromosomal expression of worm slo-1(+)
[3] = system: wild type (N2) C. elegans; test: C. elegans crawl speed assay, wild type; format: in vivo, Caenorhabditis elegans; conditions: 75 μM, 250 μM and 750 μM, 30 minutes incubation
C. elegans = test: Acute alcohol intoxication in C. elegans; set-up: species or system Caenorhabditis elegans; conditions: in vivo
[4] = system: worms expressing the ZERO isoform of the human BKα channel on a slo-1 null background (hslo(+)); test: C. elegans crawl speed assay, BK channel-humanized worms; format: in vivo, Caenorhabditis elegans; conditions: 750 μM, extrachromosomal expression of human hslo(+)
[5] = system: slo-1(null) worms (NM1968); test: C. elegans crawl speed assay, slo-1(null) strain; format: in vivo, Caenorhabditis elegans; conditions: 75 μM, 250 μM and 750 μM, 30 minutes incubation
cell proliferation = test: Preliminary cell proliferation experiment; format: cell-based

## CC(C)[C@@H]1NC(=O)CNC(=O)[C@H](CCCNC(=N)N)NC(=O)[C@H](C)NC(=O)[C@@H](N)CSSC[C@@H](C(=O)O)NC(=O)[C@H](C(C)C)NC(=O)[C@H](CCCNC(=N)N)NC(=O)[C@H](Cc2ccc(O)cc2)NC1=O [LS1, CARGVYRVC] (H-CARGVYRVC-OH; disulfide 1-9; N-terminus and C-terminus assumed)
BK channel
  modulation of phosphorylation of the BK channel: able to modulate phosphorylation at a specific site on the BK channel
[1]; compared with LS3
  pre-synaptic suppression of activity: not as strong for LS1 as LS3
[2]; 500 nM, 60 mV
  mean open times: reduce mean open times
  opening of human BKα (ZERO): suppress opening

## CC(C)C[C@@H]1NC(=O)CNC(=O)[C@H](CCCNC(=N)N)NC(=O)[C@H](CCCNC(=N)N)NC(=O)[C@@H](N)CSSC[C@@H](C(=O)O)NC(=O)[C@H](C(C)C)NC(=O)[C@H](CCC(N)=O)NC(=O)[C@H](C(C)C)NC1=O [LS3, CRRGLVQVC] (H-CRRGLVQVC-OH; disulfide 1-9; N-terminus and C-terminus assumed)
BK channel
  modulation of phosphorylation of the BK channel: able to modulate phosphorylation at a specific site on the BK channel
[1]; 1 microM
  spontaneous activity: suppresses spontaneous activity
[1]; 10 microM (2 uL)
  spontaneous and sound-evoked activity of inferior colliculus neurons: decreases spontaneous and sound-evoked activity
[1]; systemic injection 0.3 mg/kg I.P., over 2 hours, N=5 mice
  reduction in spikes within the RF: 85%
[1]; topical 1 μL of 10 μM stock on surface of IC, after 3 hours, N=5 mice
  reduction in sound driven activity: ~70%
[1]; topical 1 μL of 10 μM stock on surface of IC, after 3 hours, baseline 430 spikes
  driven activity, total spike counts within the eRF: 130 spikes
[1]; topical ~0.8 mgs/kg on dural surface
  time to recovery of sound evoked neural activity: 24 h
[1]; topical ~0.8 mgs/kg on dural surface of auditory midbrain
  sound evoked neural activity: suppressed sound evoked neural activity
slo-1(+) rescue worms
  reduction in crawl speed: can be rescued
[3]
  crawl speed: suppresses locomotor activity; also recorded: reduces crawl speed in wild-type; also recorded: reduced crawl speed
C. elegans
  acute alcohol intoxication: reduce acute alcohol intoxication
[4]
  reduction in crawl speed: can be rescued
[5]
  crawl speed: not BK channel-null worms; also recorded: but not slo-1(null) worms
[2]; 50 pM
  post-peptide Po relative to the starting Po / suppression of channel openings: Little to no suppression; also recorded: did not significantly alter the Po
[2]; 500 pM through 500 nM LS3, each holding potential, intracellular calcium 750 nM
  post-peptide Po relative to the starting Po: reduced the Po
[2]; 500 pM-500 nM, 60 mV
  suppression of channel openings: ⅔rds
[2]; 500 nM peptide, single channels, intracellular calcium 750 nM, each holding voltage
  open dwell times / mean open times: shortened openings
[2]; 500 nM peptide, three-component exponential fits, intracellular calcium 750 nM
  closed dwell times: only the longest duration closings lengthened
[2]; 500 nM, 60 mV
  mean open times: reduce mean open times
  opening of human BKα (ZERO): suppress opening
[2]; 500 nM, 60 mV and 100 mV, intracellular calcium 750 nM
  probability of opening, single channel traces: reduces the probability of opening
[2]; heterologously expressed human BK channels
  concentration range in which channel gating is suppressed: high picomolar range
Cell proliferation
  cell proliferation: can disrupt cell proliferation

## CC(C)(O)[C@H]1O[C@H]2CC[C@@]3(C)[C@@](O)(CC[C@H]4Cc5c([nH]c6ccccc56)[C@@]43C)C2=CC1=O [paxilline, reference compound]
[1]; known BK channel blocker, comparison
  suppression of activity of inferior colliculus neurons: strong suppression of activity
